We go through one compound from patent US20150094364A1, “METHOD OF USING THEAFLAVIN” (priority 2013, published 2015).

A short description of the data set: Body weight, liver weight and liver/body ratio in ethanol-fed rats (ALD model). Type of data set: in vivo, Wistar rats. The settings on record: ethanol 6000 mg/kg BW per day, beginning of 30-day study. The method, then: 6-week old male rats (Wistar rats) were stabilized and then divided into 5 groups with 10 rats per group (n=10). Rats overdosed with ethanol were used as an experimental model for human ALD. Four groups of rats were fed with ethanol at a dose of 6000 mg/kg BW (50% ethanol at 12 ml/kg BW) per day for 30 days. These four groups were divided into positive control, theaflavin (low), theaflavin (mid), and theaflavin (high). Theaflavin (capsule, Xiayie) was also fed to rat at a dose of 83 mg/kg BW (low), 250 mg/kg (mid), and 500 mg/kg (high). In addition, Fifth group was fed with water as a negative control. Animals were sacrificed after the 30-day study and livers were collected for further analyses.

For `O=c1c(O)cc([C@H]2Oc3cc(O)cc(O)c3C[C@H]2O)cc2c([C@H]3Oc4cc(O)cc(O)c4C[C@H]3O)cc(O)c(O)c12` [Theaflavin, theaflavin], the “BW (beginning)” value reads like this: (83 mg/kg BW theaflavin) 193.3 ± 8.06 g; (250 mg/kg BW theaflavin) 192.3 ± 12.34 g; (500 mg/kg BW theaflavin) 194.3 ± 9.86 g.
